± gives the standard deviation of the averaged measurements. The list shows a part of the results.
Compound: Nc1nc2c(ncn2[C@@H]2O[C@H](COP(=O)(O)OP(=O)(O)OP(=O)(O)O)[C@@H](O)[C@H]2O)c(=O)[nH]1 [guanosine triphosphate]
Assay: NP40-soluble protein abundance relative to vehicle (solubility fold change) (ratio); higher = more soluble protein in presence of GTP
Outline: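 Values are fold changes against the detergent-processed vehicle, based on vsn-normalised intensities. Jurkat crude lysate was treated at eight concentrations from 0.1 to 10 mM (10 min at room temperature, then 3 min at 37 °C), solubilised with 0.8% NP40 and benzonase, ultracentrifuged and analysed by TMT-labelled LC-MS/MS over three independent experiments.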

Protein sequences, listed by entry. Tags and fused reporters are not part of them. Lines headed by an entry give the natural chain unless they say otherwise; changes in a name come on top.
UniProt Q9H9L4: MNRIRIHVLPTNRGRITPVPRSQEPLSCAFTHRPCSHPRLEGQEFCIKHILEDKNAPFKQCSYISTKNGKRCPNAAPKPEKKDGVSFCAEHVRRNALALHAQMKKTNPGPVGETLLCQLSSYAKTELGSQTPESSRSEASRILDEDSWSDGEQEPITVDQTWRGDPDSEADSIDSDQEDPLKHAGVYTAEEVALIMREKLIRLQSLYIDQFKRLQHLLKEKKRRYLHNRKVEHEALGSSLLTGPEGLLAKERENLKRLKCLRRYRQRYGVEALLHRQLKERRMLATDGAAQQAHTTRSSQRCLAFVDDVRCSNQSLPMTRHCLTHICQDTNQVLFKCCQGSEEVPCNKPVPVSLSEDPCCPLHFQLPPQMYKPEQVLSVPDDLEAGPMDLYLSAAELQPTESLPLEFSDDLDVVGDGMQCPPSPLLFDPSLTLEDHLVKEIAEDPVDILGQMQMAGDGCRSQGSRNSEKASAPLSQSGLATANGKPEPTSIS
UniProt P61803: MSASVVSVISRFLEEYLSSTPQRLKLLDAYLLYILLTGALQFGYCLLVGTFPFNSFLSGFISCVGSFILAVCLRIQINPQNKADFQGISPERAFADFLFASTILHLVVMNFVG
UniProt Q6P444: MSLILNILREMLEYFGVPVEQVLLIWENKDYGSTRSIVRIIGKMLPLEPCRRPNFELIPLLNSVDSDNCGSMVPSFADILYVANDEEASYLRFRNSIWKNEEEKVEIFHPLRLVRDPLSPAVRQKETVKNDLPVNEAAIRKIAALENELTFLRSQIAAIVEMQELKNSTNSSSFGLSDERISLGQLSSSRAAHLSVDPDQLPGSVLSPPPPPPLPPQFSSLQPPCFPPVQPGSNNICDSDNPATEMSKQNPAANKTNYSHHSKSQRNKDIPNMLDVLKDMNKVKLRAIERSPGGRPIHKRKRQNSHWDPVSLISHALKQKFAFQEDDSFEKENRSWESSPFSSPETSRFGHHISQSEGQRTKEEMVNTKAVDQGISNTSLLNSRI
UniProt Q9HBF4: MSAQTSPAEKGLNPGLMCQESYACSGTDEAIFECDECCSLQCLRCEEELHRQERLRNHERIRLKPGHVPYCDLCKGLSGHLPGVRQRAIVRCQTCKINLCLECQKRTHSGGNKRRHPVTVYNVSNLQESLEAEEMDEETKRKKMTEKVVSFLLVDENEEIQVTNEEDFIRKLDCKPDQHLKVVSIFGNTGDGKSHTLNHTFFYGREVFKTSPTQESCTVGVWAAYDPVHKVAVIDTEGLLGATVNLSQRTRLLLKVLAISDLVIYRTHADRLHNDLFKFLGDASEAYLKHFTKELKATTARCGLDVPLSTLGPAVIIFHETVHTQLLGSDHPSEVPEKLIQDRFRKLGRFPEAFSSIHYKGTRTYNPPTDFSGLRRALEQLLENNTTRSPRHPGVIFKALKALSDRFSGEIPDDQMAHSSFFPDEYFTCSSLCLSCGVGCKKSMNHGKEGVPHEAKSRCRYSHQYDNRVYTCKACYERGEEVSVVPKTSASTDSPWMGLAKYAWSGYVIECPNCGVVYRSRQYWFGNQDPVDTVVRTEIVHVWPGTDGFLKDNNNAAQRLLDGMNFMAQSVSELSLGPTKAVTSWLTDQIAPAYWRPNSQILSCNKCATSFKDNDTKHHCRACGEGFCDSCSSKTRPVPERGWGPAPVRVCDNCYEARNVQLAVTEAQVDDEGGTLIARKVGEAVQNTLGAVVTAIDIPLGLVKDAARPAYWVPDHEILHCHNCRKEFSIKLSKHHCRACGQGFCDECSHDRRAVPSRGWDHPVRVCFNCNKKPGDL
UniProt P49023, whole entry: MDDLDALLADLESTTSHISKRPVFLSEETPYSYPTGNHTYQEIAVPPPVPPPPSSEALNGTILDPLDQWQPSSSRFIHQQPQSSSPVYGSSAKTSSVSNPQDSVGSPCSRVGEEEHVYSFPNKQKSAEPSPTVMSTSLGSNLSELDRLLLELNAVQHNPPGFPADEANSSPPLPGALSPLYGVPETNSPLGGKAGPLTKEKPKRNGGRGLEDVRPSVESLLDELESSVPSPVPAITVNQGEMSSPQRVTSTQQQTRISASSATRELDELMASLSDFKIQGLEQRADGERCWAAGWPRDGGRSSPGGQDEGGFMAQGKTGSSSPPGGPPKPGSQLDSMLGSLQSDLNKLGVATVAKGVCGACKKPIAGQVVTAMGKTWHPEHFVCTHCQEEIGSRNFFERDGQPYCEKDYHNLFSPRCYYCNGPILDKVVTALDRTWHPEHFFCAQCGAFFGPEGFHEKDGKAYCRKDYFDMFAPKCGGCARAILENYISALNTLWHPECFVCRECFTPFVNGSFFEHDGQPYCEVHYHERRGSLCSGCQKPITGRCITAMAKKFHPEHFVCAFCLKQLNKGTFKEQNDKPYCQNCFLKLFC
UniProt P60660, whole entry: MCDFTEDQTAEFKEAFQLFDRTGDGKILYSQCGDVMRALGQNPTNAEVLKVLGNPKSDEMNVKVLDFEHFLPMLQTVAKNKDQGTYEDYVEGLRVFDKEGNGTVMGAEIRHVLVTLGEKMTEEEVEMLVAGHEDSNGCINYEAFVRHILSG
UniProt Q6L8Q7: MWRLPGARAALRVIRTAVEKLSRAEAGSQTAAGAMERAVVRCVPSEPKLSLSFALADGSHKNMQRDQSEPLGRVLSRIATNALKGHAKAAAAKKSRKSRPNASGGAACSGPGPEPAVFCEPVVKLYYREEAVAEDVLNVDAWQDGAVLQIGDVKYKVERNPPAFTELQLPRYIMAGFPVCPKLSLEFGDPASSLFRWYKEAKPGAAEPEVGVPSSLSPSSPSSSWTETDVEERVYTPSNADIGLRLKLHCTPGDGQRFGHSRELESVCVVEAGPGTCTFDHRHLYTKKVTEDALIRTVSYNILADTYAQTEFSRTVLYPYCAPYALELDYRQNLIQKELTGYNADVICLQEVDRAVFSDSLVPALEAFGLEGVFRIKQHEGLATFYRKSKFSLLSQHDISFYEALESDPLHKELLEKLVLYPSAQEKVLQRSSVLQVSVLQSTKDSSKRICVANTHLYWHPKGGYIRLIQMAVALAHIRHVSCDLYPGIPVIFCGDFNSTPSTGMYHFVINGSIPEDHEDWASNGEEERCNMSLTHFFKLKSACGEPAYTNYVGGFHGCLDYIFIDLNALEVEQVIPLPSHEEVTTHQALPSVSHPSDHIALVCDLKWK
UniProt Q9UJX4, whole entry: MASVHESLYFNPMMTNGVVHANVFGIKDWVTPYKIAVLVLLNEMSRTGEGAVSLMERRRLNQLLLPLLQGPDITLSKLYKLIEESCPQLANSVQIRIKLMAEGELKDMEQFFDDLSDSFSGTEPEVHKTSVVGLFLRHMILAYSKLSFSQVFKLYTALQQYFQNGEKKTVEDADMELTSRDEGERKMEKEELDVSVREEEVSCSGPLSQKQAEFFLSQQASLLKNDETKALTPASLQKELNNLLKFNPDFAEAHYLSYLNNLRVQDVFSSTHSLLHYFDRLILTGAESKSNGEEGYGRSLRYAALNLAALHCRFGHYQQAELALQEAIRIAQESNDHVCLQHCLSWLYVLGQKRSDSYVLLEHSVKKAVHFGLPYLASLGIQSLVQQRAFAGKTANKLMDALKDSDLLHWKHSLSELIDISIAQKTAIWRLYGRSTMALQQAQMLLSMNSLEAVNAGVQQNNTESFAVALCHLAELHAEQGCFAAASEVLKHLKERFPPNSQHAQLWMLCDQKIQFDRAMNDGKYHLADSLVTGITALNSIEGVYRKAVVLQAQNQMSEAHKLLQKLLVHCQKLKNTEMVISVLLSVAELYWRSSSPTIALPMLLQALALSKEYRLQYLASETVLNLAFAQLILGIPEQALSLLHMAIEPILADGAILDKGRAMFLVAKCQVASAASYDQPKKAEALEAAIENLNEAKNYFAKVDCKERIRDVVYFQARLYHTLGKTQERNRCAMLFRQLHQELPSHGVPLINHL
UniProt Q92989: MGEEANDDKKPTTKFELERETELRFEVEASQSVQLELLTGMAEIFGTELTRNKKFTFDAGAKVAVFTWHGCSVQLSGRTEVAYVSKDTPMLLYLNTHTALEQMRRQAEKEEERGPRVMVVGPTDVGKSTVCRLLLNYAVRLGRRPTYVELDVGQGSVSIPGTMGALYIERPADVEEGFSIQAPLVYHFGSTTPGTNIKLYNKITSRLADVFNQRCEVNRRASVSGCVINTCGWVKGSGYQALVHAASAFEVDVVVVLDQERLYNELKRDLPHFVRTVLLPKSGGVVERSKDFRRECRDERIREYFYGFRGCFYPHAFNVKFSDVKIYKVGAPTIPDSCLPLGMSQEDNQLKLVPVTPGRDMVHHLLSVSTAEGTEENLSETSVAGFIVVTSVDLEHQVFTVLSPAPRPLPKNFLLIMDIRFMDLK
UniProt Q9UQ80: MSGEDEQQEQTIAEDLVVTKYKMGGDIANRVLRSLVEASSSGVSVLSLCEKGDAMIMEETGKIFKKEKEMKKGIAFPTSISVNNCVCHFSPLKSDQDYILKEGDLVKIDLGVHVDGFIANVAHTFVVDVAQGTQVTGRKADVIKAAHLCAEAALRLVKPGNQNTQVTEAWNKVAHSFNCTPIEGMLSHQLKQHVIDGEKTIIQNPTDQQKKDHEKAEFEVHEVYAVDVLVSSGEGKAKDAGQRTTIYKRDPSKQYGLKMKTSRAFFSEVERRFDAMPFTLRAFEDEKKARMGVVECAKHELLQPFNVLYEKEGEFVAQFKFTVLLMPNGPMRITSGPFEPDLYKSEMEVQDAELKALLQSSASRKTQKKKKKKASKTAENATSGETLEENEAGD
UniProt Q9BUI4: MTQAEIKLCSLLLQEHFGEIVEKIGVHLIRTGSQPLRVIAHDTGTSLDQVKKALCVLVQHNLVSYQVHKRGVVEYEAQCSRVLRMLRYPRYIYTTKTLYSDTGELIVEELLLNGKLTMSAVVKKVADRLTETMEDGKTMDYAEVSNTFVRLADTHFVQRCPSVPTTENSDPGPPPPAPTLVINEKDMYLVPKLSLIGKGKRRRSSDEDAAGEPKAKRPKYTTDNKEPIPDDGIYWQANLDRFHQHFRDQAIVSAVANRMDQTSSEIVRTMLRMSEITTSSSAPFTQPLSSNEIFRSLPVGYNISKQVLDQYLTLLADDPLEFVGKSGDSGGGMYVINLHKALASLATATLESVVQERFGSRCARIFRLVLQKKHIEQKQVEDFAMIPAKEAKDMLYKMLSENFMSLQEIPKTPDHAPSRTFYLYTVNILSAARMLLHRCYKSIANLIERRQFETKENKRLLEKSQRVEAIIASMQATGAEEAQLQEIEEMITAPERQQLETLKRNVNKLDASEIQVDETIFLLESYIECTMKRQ
UniProt P27816: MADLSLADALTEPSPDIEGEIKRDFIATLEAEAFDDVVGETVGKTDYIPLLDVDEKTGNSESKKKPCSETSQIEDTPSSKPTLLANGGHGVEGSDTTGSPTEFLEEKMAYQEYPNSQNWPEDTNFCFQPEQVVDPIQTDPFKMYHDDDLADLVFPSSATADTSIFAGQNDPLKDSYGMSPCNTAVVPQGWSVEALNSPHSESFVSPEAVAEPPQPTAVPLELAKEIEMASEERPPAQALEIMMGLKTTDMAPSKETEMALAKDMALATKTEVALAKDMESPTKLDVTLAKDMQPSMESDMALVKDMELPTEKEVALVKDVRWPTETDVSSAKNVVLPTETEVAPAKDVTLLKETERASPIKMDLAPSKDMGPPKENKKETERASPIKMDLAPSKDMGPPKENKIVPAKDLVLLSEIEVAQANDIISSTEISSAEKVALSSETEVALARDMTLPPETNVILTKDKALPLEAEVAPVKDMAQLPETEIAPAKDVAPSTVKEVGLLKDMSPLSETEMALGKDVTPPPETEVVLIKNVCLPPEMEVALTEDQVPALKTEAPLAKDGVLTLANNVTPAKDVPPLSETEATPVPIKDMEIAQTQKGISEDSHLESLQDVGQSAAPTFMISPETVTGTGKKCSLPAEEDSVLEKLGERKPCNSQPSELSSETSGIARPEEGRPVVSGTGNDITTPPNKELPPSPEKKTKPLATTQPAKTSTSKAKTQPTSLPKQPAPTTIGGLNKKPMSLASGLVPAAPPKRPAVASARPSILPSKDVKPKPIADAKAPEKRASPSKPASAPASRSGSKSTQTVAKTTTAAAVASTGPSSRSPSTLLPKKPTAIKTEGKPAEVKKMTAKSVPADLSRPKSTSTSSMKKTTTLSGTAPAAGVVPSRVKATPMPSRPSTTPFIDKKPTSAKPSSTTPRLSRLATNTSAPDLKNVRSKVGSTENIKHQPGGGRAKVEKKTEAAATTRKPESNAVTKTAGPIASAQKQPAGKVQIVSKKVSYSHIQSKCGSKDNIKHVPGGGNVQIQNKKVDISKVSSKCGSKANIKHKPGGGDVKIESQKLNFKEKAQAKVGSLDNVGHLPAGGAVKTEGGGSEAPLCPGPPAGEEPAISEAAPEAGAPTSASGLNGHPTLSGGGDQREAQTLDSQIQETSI

Target | NP40-soluble protein abundance (concentration: 0.1mM) | NP40-soluble protein abundance (concentration: 0.5mM) | NP40-soluble protein abundance (concentration: 1mM) | NP40-soluble protein abundance (concentration: 2mM) | NP40-soluble protein abundance (concentration: 4mM) | NP40-soluble protein abundance (concentration: 6mM) | NP40-soluble protein abundance (concentration: 8mM) | NP40-soluble protein abundance (concentration: 10mM)
F5H5U2 and related entries (UniProt Q8NHQ9) | 1.09 ± 0.053 | 1.08 ± 0.076 | 0.984 ± 0.043 | 1.08 ± 0.11 | 1.15 ± 0.098 | 1.17 ± 0.073 | 1.24 ± 0.053 | 1.33 ± 0.14
F8VX10 and related entries (UniProt Q9H9L4) | 1.01 ± 0.087 | 1.09 ± 0.098 | 1.11 ± 0.058 | 1.15 ± 0.072 | 1.18 ± 0.13 | 1.18 ± 0.23 | 1.27 ± 0.22 | 1.24 ± 0.16
E9PMC9 and related entries (UniProt Q7Z589) | 1.07 ± 0.1 | 1.11 ± 0.017 | 1.23 ± 0.083 | 1.34 ± 0.09 | 1.48 ± 0.14 | 1.49 ± 0.2 | 1.6 ± 0.3 | 1.68 ± 0.3
G5E994 and related entries (UniProt Q5VW38) | 1.03 ± 0.02 | 1.03 ± 0.051 | 1.05 ± 0.044 | 0.991 ± 0.037 | 0.972 ± 0.051 | 0.956 ± 0.052 | 0.961 ± 0.038 | 1 ± 0.015
F5GXX5 and related entries (UniProt P61803) | 0.93 ± 0.1 | 0.896 ± 0.07 | 0.863 ± 0.13 | 0.908 ± 0.043 | 0.886 ± 0.041 | 0.823 ± 0.065 | 0.794 ± 0.12 | 0.825 ± 0.072
E9PMG4 and related entries (UniProt Q9BUR4) | 1.19 ± 0.15 | 1.27 ± 0.15 | 1.19 ± 0.08 | 1.17 ± 0.14 | 1.14 ± 0.074 | 1.22 ± 0.097 | 1.2 ± 0.049 | 1.32 ± 0.064
E9PAV3 and related entries (UniProt Q13765+H0YHX9+F8VZJ2+E9PAV3) | 0.858 ± 0.15 | 0.871 ± 0.15 | 0.852 ± 0.15 | 0.907 ± 0.15 | 0.912 ± 0.14 | 0.934 ± 0.16 | 0.899 ± 0.16 | 0.971 ± 0.15
E9PN39 and related entries (UniProt Q6P444) | 1.01 ± 0.15 | 0.987 ± 0.092 | 1.03 ± 0.088 | 0.998 ± 0.2 | 1.04 ± 0.12 | 1.03 ± 0.083 | 1.1 ± 0.17 | 0.942 ± 0.14
F8VYE8 and related entries (UniProt P36873) | 1.07 ± 0.016 | 1.07 ± 0.044 | 0.962 ± 0.01 | 0.972 ± 0.06 | 0.959 ± 0.089 | 0.965 ± 0.067 | 0.955 ± 0.058 | 0.925 ± 0.096
F5GYQ1 and related entries (UniProt P61421) | 1.06 ± 0.036 | 1.12 ± 0.12 | 1.07 ± 0.13 | 1.09 ± 0.13 | 1.08 ± 0.11 | 1.1 ± 0.15 | 1.07 ± 0.12 | 1.03 ± 0.11
G3V5N8 and related entries (UniProt Q9HBF4) | 1.05 ± 0.084 | 1.09 ± 0.083 | 1.05 ± 0.2 | 1.05 ± 0.12 | 0.965 ± 0.21 | 0.961 ± 0.066 | 0.979 ± 0.13 | 1.02 ± 0.17
F5GZ78 and related entries (UniProt P49023) | 0.948 ± 0.031 | 0.981 ± 0.067 | 0.932 ± 0.064 | 0.929 ± 0.058 | 0.905 ± 0.045 | 0.906 ± 0.038 | 0.924 ± 0.026 | 0.933 ± 0.076
E7ERU0 and related entries (UniProt Q03001) | 1.03 ± 0.2 | 1.03 ± 0.22 | 0.991 ± 0.12 | 1.01 ± 0.29 | 0.99 ± 0.3 | 0.935 ± 0.19 | 0.947 ± 0.12 | 0.966 ± 0.18
G3V1P3 and related entries (UniProt Q969J3+G3V1P3) | 0.981 ± 0.11 | 0.915 ± 0.04 | 1.01 ± 0.079 | 1.01 ± 0.06 | 0.991 ± 0.033 | 1 ± 0.026 | 0.9928 ± 0.0048 | 1.01 ± 0.076
G3V1V0 and related entries (UniProt P60660) | 0.82 ± 0.15 | 0.834 ± 0.13 | 0.971 ± 0.12 | 0.97 ± 0.15 | 0.983 ± 0.19 | 0.988 ± 0.15 | 0.966 ± 0.11 | 1.1 ± 0.23
F8VYC4 and related entries (UniProt P0DJD1+P0DJD0+F8VYC4) | 0.973 ± 0.065 | 1.03 ± 0.053 | 0.97 ± 0.079 | 1.01 ± 0.03 | 0.941 ± 0.12 | 0.992 ± 0.096 | 1.06 ± 0.14 | 1.02 ± 0.11
F6T1Q0 and related entries (UniProt Q6L8Q7) | 1.01 ± 0.02 | 0.965 ± 0.048 | 0.902 ± 0.022 | 0.902 ± 0.064 | 0.892 ± 0.046 | 0.885 ± 0.057 | 0.848 ± 0.046 | 0.828 ± 0.081
F5GXJ9 and related entries (UniProt Q13740) | 0.832 ± 0.064 | 0.877 ± 0.076 | 0.92 ± 0.11 | 0.879 ± 0.086 | 0.868 ± 0.057 | 0.895 ± 0.083 | 0.832 ± 0.055 | 0.893 ± 0.11
F5H0F9 and related entries (UniProt Q9UJX4) | 1.07 ± 0.11 | 1.11 ± 0.12 | 1.03 ± 0.15 | 1.15 ± 0.13 | 1.16 ± 0.24 | 1.15 ± 0.2 | 1.13 ± 0.17 | 1.11 ± 0.19
E9PL17 and related entries (UniProt Q92989) | 1.13 ± 0.11 | 1.19 ± 0.17 | 1.07 ± 0.09 | 1.13 ± 0.15 | 1.11 ± 0.14 | 1.06 ± 0.13 | 1.01 ± 0.039 | 1.07 ± 0.093
E9PC44 and related entries (UniProt O94855) | 1.01 ± 0.011 | 1.05 ± 0.064 | 0.989 ± 0.016 | 0.9768 ± 0.0074 | 0.94 ± 0.015 | 0.956 ± 0.012 | 0.945 ± 0.014 | 0.922 ± 0.011
F8VZ69 and related entries (UniProt Q9UQ80) | 0.903 ± 0.057 | 0.926 ± 0.052 | 0.843 ± 0.048 | 0.813 ± 0.045 | 0.778 ± 0.036 | 0.823 ± 0.046 | 0.799 ± 0.058 | 0.789 ± 0.054
F8VZ44 and related entries (UniProt Q9NRG9) | 1.06 ± 0.097 | 0.9932 ± 0.0084 | 0.905 ± 0.024 | 0.9484 ± 0.0085 | 0.924 ± 0.03 | 0.874 ± 0.092 | 0.937 ± 0.071 | 1.04 ± 0.019
E9PHH9 and related entries (UniProt Q9BUI4) | 1.05 ± 0.019 | 1.01 ± 0.019 | 1.05 ± 0.042 | 1.07 ± 0.1 | 1.12 ± 0.041 | 1.02 ± 0.1 | 1.04 ± 0.044 | 0.994 ± 0.056
E7EVA0 and related entries (UniProt P27816) | 0.927 ± 0.06 | 0.933 ± 0.077 | 0.957 ± 0.094 | 0.915 ± 0.12 | 0.92 ± 0.12 | 0.955 ± 0.14 | 1.01 ± 0.1 | 0.994 ± 0.12

An excerpt of these results, as a markdown table.

| Target | NP40-soluble protein abundance (concentration: 0.1mM) | NP40-soluble protein abundance (concentration: 0.5mM) | NP40-soluble protein abundance (concentration: 1mM) | NP40-soluble protein abundance (concentration: 2mM) | NP40-soluble protein abundance (concentration: 4mM) | NP40-soluble protein abundance (concentration: 6mM) | NP40-soluble protein abundance (concentration: 8mM) | NP40-soluble protein abundance (concentration: 10mM) |
| --- | --- | --- | --- | --- | --- | --- | --- | --- |
| G5E994 and related entries (UniProt Q5VW38) | 1.03 ± 0.02 | 1.03 ± 0.051 | 1.05 ± 0.044 | 0.991 ± 0.037 | 0.972 ± 0.051 | 0.956 ± 0.052 | 0.961 ± 0.038 | 1 ± 0.015 |
| E9PHH9 and related entries (UniProt Q9BUI4) | 1.05 ± 0.019 | 1.01 ± 0.019 | 1.05 ± 0.042 | 1.07 ± 0.1 | 1.12 ± 0.041 | 1.02 ± 0.1 | 1.04 ± 0.044 | 0.994 ± 0.056 |
